{"source": "PubChem BioAssay AID1259254 (NCATS, 2017)", "screen": "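Gene knock-downs that lead to re-replication, shown by excess G2 DNA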 (primary screen)", "cells": "human HCT116 colorectal cancer cells", "reagent": "single siRNA against human genes", "duration": "3 days", "measurement": "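Nuclei stained with Hoechst and imaged; cell-cycle phase assigned by DNA content; G2 share scaled per plate, non-targeting siRNA 0%, GMNN siRNA 100%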", "scale": "G2 robust z-score: higher = more G2 cells, more excess DNA replication", "rule for the call": "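Active siRNAs have a G2 robust z of 5 or more median absolute deviations over the median, which in these data means about 38% or higher of GMNN control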", "note": "In all, the deposit lists about 59,000 reagents; shown is an unselected part. Of all reagents, about 1,550 (2.6%) were called active. 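G2 share is only a proxy for re-replication; each gene was hit by three separate siRNAs, and active genes were retested.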 The numbers tell different reagents against one gene apart. Not all columns of the deposit are shown. No sequences are given here. The record does not give: the amount of reagent."}
{"target": "CPN2", "reagent": 1, "G2 robust z-score": 0.475, "activity call": "inactive"}
{"target": "CPN2", "reagent": 2, "G2 robust z-score": 2.95, "activity call": "inactive"}
{"target": "CPN2", "reagent": 3, "G2 robust z-score": -0.723, "activity call": "inactive"}
{"target": "OOEP", "reagent": 1, "G2 robust z-score": 1.66, "activity call": "inactive"}
{"target": "OOEP", "reagent": 2, "G2 robust z-score": 1.31, "activity call": "inactive"}
{"target": "OOEP", "reagent": 3, "G2 robust z-score": -0.367, "activity call": "inactive"}
{"target": "CPS1", "reagent": 1, "G2 robust z-score": -0.169, "activity call": "inactive"}
{"target": "CPS1", "reagent": 2, "G2 robust z-score": 3.05, "activity call": "inactive"}
{"target": "CPS1", "reagent": 3, "G2 robust z-score": -0.811, "activity call": "inactive"}
{"target": "TMX3", "reagent": 1, "G2 robust z-score": -0.748, "activity call": "inactive"}
{"target": "TMX3", "reagent": 2, "G2 robust z-score": -0.75, "activity call": "inactive"}
{"target": "TMX3", "reagent": 3, "G2 robust z-score": -1.13, "activity call": "inactive"}
{"target": "SLC18A1", "reagent": 1, "G2 robust z-score": -0.281, "activity call": "inactive"}
{"target": "SLC18A1", "reagent": 2, "G2 robust z-score": 2.32, "activity call": "inactive"}
{"target": "SLC18A1", "reagent": 3, "G2 robust z-score": 1.55, "activity call": "inactive"}
{"target": "PKD2L2", "reagent": 1, "G2 robust z-score": -0.709, "activity call": "inactive"}
{"target": "PKD2L2", "reagent": 2, "G2 robust z-score": -0.0355, "activity call": "inactive"}
{"target": "PKD2L2", "reagent": 3, "G2 robust z-score": -0.912, "activity call": "inactive"}
{"target": "ARHGAP42", "reagent": 1, "G2 robust z-score": -0.717, "activity call": "inactive"}
{"target": "ARHGAP42", "reagent": 2, "G2 robust z-score": 2.02, "activity call": "inactive"}
{"target": "ARHGAP42", "reagent": 3, "G2 robust z-score": -0.0599, "activity call": "inactive"}
{"target": "ARHGAP42", "reagent": 4, "G2 robust z-score": 0.349, "activity call": "inactive"}
{"target": "ARHGAP42", "reagent": 5, "G2 robust z-score": -0.534, "activity call": "inactive"}
{"target": "ARHGAP42", "reagent": 6, "G2 robust z-score": 2.63, "activity call": "inactive"}

Reprinted from the entries so far (2 entries):
{"target": "TMX3", "reagent": 3, "G2 robust z-score": -1.13, "activity call": "inactive"}
{"target": "SLC18A1", "reagent": 1, "G2 robust z-score": -0.281, "activity call": "inactive"}
